Test results: patent US20230278984A1 (Global Blood Therapeutics, Inc., priority 2020, published 2023)

The chains behind the UniProt entries cited, without tags or fusion partners. Residues count along the entry.
UniProt P30613, 14-574 limits assumed: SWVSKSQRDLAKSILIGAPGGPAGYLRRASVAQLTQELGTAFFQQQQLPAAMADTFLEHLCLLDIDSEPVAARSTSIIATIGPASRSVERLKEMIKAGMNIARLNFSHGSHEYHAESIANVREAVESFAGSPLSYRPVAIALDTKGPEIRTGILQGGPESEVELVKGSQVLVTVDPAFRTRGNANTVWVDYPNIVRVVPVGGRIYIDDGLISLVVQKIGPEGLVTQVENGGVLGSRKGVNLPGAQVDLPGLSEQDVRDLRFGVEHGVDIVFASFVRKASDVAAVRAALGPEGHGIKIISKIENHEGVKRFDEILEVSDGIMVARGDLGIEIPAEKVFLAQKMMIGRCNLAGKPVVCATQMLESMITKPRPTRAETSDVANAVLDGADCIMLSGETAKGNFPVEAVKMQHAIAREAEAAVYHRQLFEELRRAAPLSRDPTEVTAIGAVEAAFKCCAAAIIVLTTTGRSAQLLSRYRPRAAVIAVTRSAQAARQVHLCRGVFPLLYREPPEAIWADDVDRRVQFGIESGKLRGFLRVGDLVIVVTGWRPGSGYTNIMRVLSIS

Target: Human pyruvate kinase R (PKR) (Homo sapiens, UniProt P30613)
Assay: Biochemical assay for activation of pyruvate kinase R (Kinase-Glo luminescence measurement of ATP generation)

PKR % activation (maximal activation level) (maximal activation level relative to the activation level achieved by the literature compound AG-348 @ 10 μM): 75% | AC50 (read-out: PKR AC50, PKR biochemical assay, 0.1 nM PKR, 0.3 mM ADP, 2 mM FBP, 0.1 mM PEP): 0.046 µM
SMILES: Cc1nc(CNC(=O)NCc2ncnn2-c2ccc3ncsc3c2)n(-c2ccc(Cl)c(F)c2)n1

The structures given here were assigned with low confidence; some may be wrong.
